Measurements as given in article PMC10163288.
The list shows a part of the results.

B1: il10ra_site1_sap_34_mot_HHH_b1_01513_af2_000000021_0001_1_16_H_._HHH_b2_07752_0001_0000400029_0000002_0_0001_af2pred_dldesign_0_af2pred (protein)
chain: SSSSSNPKEFLKKALEYAKWLLEQGDEESAAYVVAAARDMIERAGDPELRKMLEEFEEELSSSSS
B2: il10ra_site1_normal_mot_HHH_b2_05813_000000266_0001_1_19_H_._HHH_b2_04910_af2_0001_0000500012_0000002_0_af2pred_0001 (protein)
chain: SSSSNAEEIALKAAVRARRLLQKGDPEEAERILEEALEELEELGNPKAVRLIRNALRIIRLSSSS
B3: il10ra_site1_normal_mot_0750aae41c39e4229e2ea8fa354cc919_0001_1_000000144_0001_37_51_H_._HHH_b1_03276_0001_0001200092_0000001_0 (protein)
chain: SSSNAEISLKAAERALRVLLEEGDPERAEHALQFWAELDELAGNPELAEELREIFERLEQELSSS
B4: il10ra_site1_normal_mot_HHH_b1_02997_000000220_0001_39_52_H_._HHH_b1_06380_0001_0000200012_0000001_0_af2pred_0001 (protein)
chain: SSSSSSDEVHEIVRLIREALQIEDPEEAEKVLEEAERLAEEANNEQALIIIETAKRVLGSSSSSS
B5: il10ra_site1_normal_mot_HHH_b2_00837_af2_000000287_0001_40_54_H_._HHH_b1_03367_af2_0001_0000300020_0000002_0 (protein)
chain: SSSSDEEEEELKKLLEELEELVEEGDPRRVSRVAAEIARLAFRLNDPEALKRAWELVQSVKSSSS
B6: il10ra_site1_normal_mot_HHH_b2_06979_000000158_0001_42_57_H_._HHH_b1_03926_0001_0000300034_0000001_0 (protein)
chain: SSSSDVSQRIAELLRRASELLNEGNPEEAEELVEEALELAQENNNELLAHNAEFLLRDVRSSSSS
B7: il10ra_site1_sap_8_mot_HHH_b1_05357_000000034_0001_23_39_H_._HHH_b2_01639_0001_0000200008_0000001_0_0001 (protein)
chain: SSSSSEEEERLEELLERIKEAVERGDPELFAKLALELLRLAFQLRDEEVLQELHRLIEKAASSSS
B8: il10ra_site1_sap_13_mot_cffd2965c37bdde328b01796c783dcd7_0001_1_af2_000000013_0001_37_51_H_._32d9be0a7eede691a12a55b788178704_0001_af2_0001_0000500014_0000001_0 … (protein)
chain: SSSSDERELWRILLKALRAAYQNGDKELLEAIWELARRYAEEGDPRYVEEVEELVEEVEKSSSSS
B9: il10ra_site1_normal_mot_HHH_b2_08265_af2_000000206_0001_22_38_H_._HHH_b2_01362_0001_0000200008_0000001_0_1_af2pred_0001 (protein)
chain: SSSSSELEEEIEQLKKELEELLENNDPQRVVRVLRRLIKVAAETNDEEALELALEVAERLSSSSS
B10: il10ra_site1_normal_mot_HHH_b1_00999_000000080_0001_41_55_H_._HHH_b1_02031_af2_0001_0000100001_0000001_0 (protein)
chain: SSSSSDEEEEEVERLLEEAEKIPDPRERNEILLEALHIALELGDEELLQLVWKVVKELGSSSSSS
B11: il10ra_site1_sap_24_mot_HHH_b1_04940_000000219_0001_1_18_H_._HHH_b2_04489_0001_0000100005_0000001_0_0001 (protein)
chain: SSSSSSLEEAYELSRKLAELLREGDEEKFEELLEELRRLAEEGNNWIIRYLIEVLEAMLHSSSSS
B12: il10ra_site1_sap_15_mot_HHH_b1_03314_af2_000000278_0001_42_55_H_._HHH_b2_06830_0001_0000200008_0000002_0_0001 (protein)
chain: SSSSSSEEFEERVEELLERLEHVSPEERFRLLQEALHLAFQARNEELLQEIWRAAKEIAKSSSSS
B13: il10ra_site1_normal_mot_HHH_b2_08186_000000021_0001_43_56_H_._HHH_b2_01289_0002_0000200014_0000001_0 (protein)
chain: SSSSSDEVEELLEEVEELLREGNEEEALEVILRALQLAIRLSDPELLQEVWELLKKIAGSSSSSS
B14: il10ra_site1_normal_mot_HHH_b2_00573_000000208_0001_39_53_H_._HHH_b1_02008_0001_0000300018_0000001_0 (protein)
chain: SSSSDEEREEFERLYEEAEELLEEGDPEKVFEALRRLIELASELNDPELFRRVIRLIRELFSSSS
B15: il10ra_site1_sap_23_mot_HHH_b2_06497_000000202_0001_1_20_H_._HHH_b2_02266_af2_0001_0000800062_0000001_0_0001_af2pred_0001 (protein)
chain: SSSSSSEEVFRRVAELLAEAARIEDEEERKKVLEEAEELARENNDPLLEFAVEWAAERASSSSSS
B16: il10ra_site1_sap_15_mot_HHH_b2_00277_af2_000000172_0001_1_17_H_._HHH_b2_08320_0001_0000400029_0000001_0_0001_af2pred_0001 (protein)
chain: SSSSDEAAELLRRAAELAERIHREGDPELEEELEQLLEEVRELGDELVLRFVEFLLQLVQSSSSS
B17: il10ra_site1_sap_14_mot_HHH_b2_06795_000000133_0001_42_56_H_._HHH_b1_04942_0001_0000100002_0000002_0_0001 (protein)
chain: SSSSSSEEVWELIKRALELLAQGNEEEARKVLEEARELAEELNDFAALFAIRILEEDLNSSSSSS
B18: il10ra_site1_sap_15_mot_HHH_b1_00267_af2_000000050_0001_38_52_H_._HHH_b1_06096_0001_0000200009_0000001_0_0001 (protein)
chain: SSSSDEEQEELEELVRLLEELLKEGDRERFAETAQRALRIAFQLRDPEALRALWRLVKEFASSSS
B19: il10ra_site1_normal_mot_39ab2cb694c8b9c1dc7e65c0d672c93e_0001_000000036_0001_53_65_H_._HHH_b1_05574_0001_0000200012_0000001_0 (protein)
chain: SSSSSEEERIEELIERAEELLERGNPEEALRLVMEALRHAFRARNAELLKELWKLAKEIASSSSS

These binders were tested against il10ra, Q13651 (assay: yeast display titration).
In the case of B1, the “apparent Kd” value is reported as “inactive: no binding seen”. With B2 the “apparent Kd” value was “inactive: no binding seen”. In the case of B3, the “apparent Kd” value is reported as “inactive: no binding seen”. For B4, the “apparent Kd” value was “inactive: no binding seen”. For B5, the “apparent Kd” value was “inactive: no binding seen”. B6 was tested, and the “apparent Kd” value was “inactive: no binding seen”. With B7 the “apparent Kd” value was “inactive: no binding seen”. In the case of B8, the “apparent Kd” value is reported as “inactive: no binding seen”. With B9 the “apparent Kd” value was “inactive: no binding seen”. In the case of B10, the “apparent Kd” value is reported as “inactive: no binding seen”. In the case of B11, the “apparent Kd” value is reported as “inactive: no binding seen”. For B12, the “apparent Kd” value was “inactive: no binding seen”. For B13, the “apparent Kd” value was “inactive: no binding seen”. B14 was tested, and the “apparent Kd” value was “inactive: no binding seen”. For B15, the “apparent Kd” value was “inactive: no binding seen”. B16 was tested, and the “apparent Kd” value was “inactive: no binding seen”. In the case of B17, the “apparent Kd” value is reported as “inactive: no binding seen”. B18 was tested, and the “apparent Kd” value was “inactive: no binding seen”. With B19 the “apparent Kd” value was “inactive: no binding seen”.
